No constants are given. Whether binding was seen depends on the method and setting. In cells and extracts the contact can be indirect. A yes stands for co-enrichment or nearness to the bait. Other partners may have been found. Tags and fused reporters may be left off the sequences shown.

Among the data in publication PMC8527048 are binding values, retold here.

The target in the experiment is T1, ORMDL3-MYC (UniProt Q9CPZ6).
T1 sequence: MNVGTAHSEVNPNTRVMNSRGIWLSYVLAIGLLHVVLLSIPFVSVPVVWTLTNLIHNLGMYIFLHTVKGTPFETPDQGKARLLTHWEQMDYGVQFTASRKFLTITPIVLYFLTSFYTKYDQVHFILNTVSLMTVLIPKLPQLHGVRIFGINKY
Description: affinity purification with mass spectrometry; anti-MYC antibody on protein G beads precipitates ORMDL3-MYC from BMMCL activated 3 min with 1 uM thapsigargin; 1% Triton X-100 lysis, 2 h at 4°C; Coomassie-stained band cut out, MALDI peptide mass fingerprinting.

B1: 5-lipoxygenase (5-LO), endogenous in mouse mast cells (enzyme, UniProt P48999 1-674)
chain: MPSYTVTVATGSQWFAGTDDYIYLSLIGSAGCSEKHLLDKAFYNDFERGAVDSYDVTVDEELGEIYLVKIEKRKYWLHDDWYLKYITLKTPHGDYIEFPCYRWITGEGEIVLRDGRAKLARDDQIHILKQHRRKELEARQKQYRWMEWNPGFPLSIDAKCHKDLPRDIQFDSEKGVDFVLNYSKAMENLFINRFMHMFQSSWHDFADFEKIFVKISNTISERVKNHWQEDLMFGYQFLNGCNPVLIKRCTALPPKLPVTTEMVECSLERQLSLEQEVQEGNIFIVDYELLDGIDANKTDPCTHQFLAAPICLLYKNLANKIVPIAIQLNQTPGESNPIFLPTDSKYDWLLAKIWVRSSDFHVHQTITHLLRTHLVSEVFGIAMYRQLPAVHPLFKLLVAHVRFTIAINTKAREQLICEYGLFDKANATGGGGHVQMVQRAVQDLTYSSLCFPEAIKARGMDSTEDIPFYFYRDDGLLVWEAIQSFTMEVVSIYYENDQVVEEDQELQDFVKDVYVYGMRGKKASGFPKSIKSREKLSEYLTVVIFTASAQHAAVNFGQYDWCSWIPNAPPTMRAPPPTAKGVVTIEQIVDTLPDRGRSCWHLGAVWALSQFQENELFLGMYPEEHFIEKPVKEAMIRFRKNLEAIVSVIAERNKNKKLPYYYLSPDRIPNSVAI
B1: the binding entry was “binds”.
